According to paper PMC6380604:
Results are given in words; binding and its absence hold for the method and conditions named. In cells and extracts the contact can be indirect. Some results given as binding are weak or reduced against the parent protein; the word gives no strength. Sequences can lack the tags named with a protein.

By UniProt entry, the sequences of proteins in these tests, tags left out. Residues count along the entry.
UniProt P78324, residues 31-504: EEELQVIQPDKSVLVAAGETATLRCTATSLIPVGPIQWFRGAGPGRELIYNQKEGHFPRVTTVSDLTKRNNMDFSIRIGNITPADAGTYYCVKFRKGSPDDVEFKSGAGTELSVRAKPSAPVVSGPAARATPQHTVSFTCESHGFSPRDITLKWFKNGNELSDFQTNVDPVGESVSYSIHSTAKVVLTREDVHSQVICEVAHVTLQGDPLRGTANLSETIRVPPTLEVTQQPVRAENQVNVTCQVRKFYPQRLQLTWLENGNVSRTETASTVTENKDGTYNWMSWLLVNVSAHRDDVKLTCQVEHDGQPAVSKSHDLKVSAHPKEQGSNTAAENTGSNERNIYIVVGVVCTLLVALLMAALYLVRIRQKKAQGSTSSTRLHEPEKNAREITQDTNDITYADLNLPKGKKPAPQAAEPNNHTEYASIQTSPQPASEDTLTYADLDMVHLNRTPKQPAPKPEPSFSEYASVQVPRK

Target: FLAG-tagged human signal regulatory protein α (SIRPA) (human) (UniProt P78324)
Test: co-IP

B1: myc-tagged TRIM2 (full length) (protein, UniProt Q9ESN6 1-744)
chain: MASEGASIPSPVVRQIDKQFLICSICLERYKNPKVLPCLHTFCERCLQNYIPAHSLTLSCPVCRQTSILPEKGVAALQNNFFITNLMDVLQRTPGSNGEDSSILETVTAVAAGKPLSCPNHDGNVMEFYCQSCETAMCRECTEGEHAEHPTVPLKDVVEQHKASLQVQLDAVNKRLPEIDSALQFISEIIHQLTNQKASIVDDIHSTFDELQKTLNVRKSVLLMELEVNYGLKHKVLQSQLDTLLQGQESIKSCSNFTAQALNHGTETEVLLVKKQMSEKLNELADQDFPLHPRENDQLDFIVETEGLKKSIHNLGTILTTNAVASETVATGEGLRQTIIGQPMSVTITTKDKDGELCKTGNAYLTAELSTPDGSVADGEILDNKNGTYEFLYTVQKEGDFTLSLRLYDQHIRGSPFKLKVIRSADVSPTTEGVKRRVKSPGSGHVKQKAVKRPASMYSTGKRKENPIEDDLIFRVGTKGRNKGEFTNLQGVAASTSGKILIADSNNQCVQIFSNDGQFKSRFGIRGRSPGQLQRPTGVAVHPSGDIIIADYDNKWVSIFSNDGKFKTKIGSGKLMGPKGVSVDRNGHIIVVDNKACCVFIFQPNGKIVTRFGSRGNGDRQFAGPHFAAVNSNNEIIITDFHNHSVKVFNQEGEFMLKFGSNGEGNGQFNAPTGVAVDSNGNIIVADWGNSRIQVFDGSGSFLSYINTSADPLYGPQGLALTSDGHVVVADSGNHCFKVYRYLQ
With B1 the binding was “binds”.
